In US20210283117A1, “PROPHYLACTIC OR THERAPEUTIC AGENT FOR PROSTATE CANCER” (KEIO UNIVERSITY, priority 2018, published 2021):

Key:
LN-CaP cell lines = experiment: cells; conditions: Homo sapiens, LNCaP, 48 h
C4-2AT6 cell lines = experiment: cells; conditions: 48 h

## CNC(=O)c1ccc(N2C(=S)N(c3ccc(C#N)c(C(F)(F)F)c3)C(=O)C2(C)C)cc1F [enzalutamide]
LN-CaP cell lines
  IC50: 12.1 µM
C4-2AT6 cell lines
  IC50: 94.3 µM
